In article PMC5150216:
Results are given in words; binding and its absence hold for the method and conditions named. Binding seen in cells or lysates may run through a third protein. Here binding means that the protein was enriched with, or labelled near, the bait; the list need not be complete.

Target: T1, ExoY^K81M-TAP (P. aeruginosa PAO1) (UniProt Q9I1S4)
T1 sequence: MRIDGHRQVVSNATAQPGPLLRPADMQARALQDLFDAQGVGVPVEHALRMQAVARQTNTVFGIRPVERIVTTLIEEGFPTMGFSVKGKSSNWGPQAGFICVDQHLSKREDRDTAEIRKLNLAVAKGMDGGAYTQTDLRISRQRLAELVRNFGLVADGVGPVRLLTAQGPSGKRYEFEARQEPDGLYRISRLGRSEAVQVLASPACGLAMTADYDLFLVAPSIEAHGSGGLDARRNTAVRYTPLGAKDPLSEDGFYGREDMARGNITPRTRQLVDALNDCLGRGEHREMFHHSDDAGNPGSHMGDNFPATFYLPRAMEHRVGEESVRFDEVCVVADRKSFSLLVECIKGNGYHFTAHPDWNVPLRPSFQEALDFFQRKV
Experiment: affinity purification with mass spectrometry

yeast actin (Act1) (from UniProt P60010 1-375)
binding: binds
